Our source for the binding values is PMC11101452, “Structures of the mumps virus polymerase complex via cryo-electron microscopy” (Nature Communications, 2024).

Amino acid sequences for entries named in this document (tags omitted).
UniProt C0JJA4: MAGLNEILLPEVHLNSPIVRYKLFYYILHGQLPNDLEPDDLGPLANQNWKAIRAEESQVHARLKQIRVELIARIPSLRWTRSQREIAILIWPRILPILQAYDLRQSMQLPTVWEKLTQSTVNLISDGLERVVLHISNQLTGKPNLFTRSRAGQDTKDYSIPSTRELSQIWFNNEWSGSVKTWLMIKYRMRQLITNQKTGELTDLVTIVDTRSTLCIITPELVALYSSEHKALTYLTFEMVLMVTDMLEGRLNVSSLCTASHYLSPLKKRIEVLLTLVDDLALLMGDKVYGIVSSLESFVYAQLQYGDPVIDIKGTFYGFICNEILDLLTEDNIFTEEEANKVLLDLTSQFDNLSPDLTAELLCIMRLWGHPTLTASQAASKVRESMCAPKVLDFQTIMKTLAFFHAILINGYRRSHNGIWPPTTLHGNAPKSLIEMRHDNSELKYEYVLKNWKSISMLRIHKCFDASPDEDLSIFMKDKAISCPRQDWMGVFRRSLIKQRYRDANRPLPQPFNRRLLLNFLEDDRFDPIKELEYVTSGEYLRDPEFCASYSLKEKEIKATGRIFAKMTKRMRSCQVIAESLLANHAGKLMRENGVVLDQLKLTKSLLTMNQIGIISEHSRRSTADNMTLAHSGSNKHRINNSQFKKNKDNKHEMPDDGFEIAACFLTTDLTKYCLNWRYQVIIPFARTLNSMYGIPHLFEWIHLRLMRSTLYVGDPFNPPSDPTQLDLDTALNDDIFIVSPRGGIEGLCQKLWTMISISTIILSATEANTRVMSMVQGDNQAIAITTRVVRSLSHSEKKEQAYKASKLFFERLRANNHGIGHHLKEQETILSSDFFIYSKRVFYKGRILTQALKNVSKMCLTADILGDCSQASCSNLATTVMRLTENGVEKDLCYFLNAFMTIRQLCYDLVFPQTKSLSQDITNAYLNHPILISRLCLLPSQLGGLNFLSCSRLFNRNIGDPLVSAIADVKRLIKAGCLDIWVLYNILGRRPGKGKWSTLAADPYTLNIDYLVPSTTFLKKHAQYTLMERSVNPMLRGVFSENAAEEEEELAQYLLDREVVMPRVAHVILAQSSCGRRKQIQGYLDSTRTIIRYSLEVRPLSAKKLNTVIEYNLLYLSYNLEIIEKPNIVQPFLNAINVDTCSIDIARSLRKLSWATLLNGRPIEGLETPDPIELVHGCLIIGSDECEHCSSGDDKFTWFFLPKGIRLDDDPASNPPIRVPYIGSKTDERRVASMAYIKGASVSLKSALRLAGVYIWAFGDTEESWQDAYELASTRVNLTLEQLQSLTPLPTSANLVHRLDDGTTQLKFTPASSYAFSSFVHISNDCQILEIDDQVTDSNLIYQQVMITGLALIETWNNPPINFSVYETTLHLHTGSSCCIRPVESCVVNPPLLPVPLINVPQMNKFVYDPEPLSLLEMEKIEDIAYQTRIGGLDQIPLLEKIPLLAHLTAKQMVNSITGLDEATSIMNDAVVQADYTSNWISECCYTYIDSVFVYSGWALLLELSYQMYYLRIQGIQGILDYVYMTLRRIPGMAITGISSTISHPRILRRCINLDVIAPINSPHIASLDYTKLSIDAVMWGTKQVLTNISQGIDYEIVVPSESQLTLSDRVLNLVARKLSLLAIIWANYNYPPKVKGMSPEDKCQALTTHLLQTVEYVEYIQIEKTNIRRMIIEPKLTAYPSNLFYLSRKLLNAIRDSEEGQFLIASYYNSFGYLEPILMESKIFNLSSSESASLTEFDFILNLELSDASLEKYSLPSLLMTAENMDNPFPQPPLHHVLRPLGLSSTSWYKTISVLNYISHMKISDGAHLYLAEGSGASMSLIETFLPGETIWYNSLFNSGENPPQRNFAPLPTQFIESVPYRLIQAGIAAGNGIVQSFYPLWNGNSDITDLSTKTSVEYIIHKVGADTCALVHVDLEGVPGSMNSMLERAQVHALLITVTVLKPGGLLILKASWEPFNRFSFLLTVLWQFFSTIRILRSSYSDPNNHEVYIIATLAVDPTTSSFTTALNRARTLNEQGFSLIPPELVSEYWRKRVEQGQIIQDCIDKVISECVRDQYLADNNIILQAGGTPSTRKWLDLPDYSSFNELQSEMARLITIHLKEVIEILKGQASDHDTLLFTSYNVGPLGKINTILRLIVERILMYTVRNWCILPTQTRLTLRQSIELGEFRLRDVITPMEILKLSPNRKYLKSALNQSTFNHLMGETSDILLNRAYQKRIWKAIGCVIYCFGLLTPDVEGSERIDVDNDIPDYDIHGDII

These are yes or no findings as the source states them, for the method shown. Some binding calls cover weakened binding; strength is not graded here.

The assay deals with mumps virus (strain Jeryl-Lynn) large protein (L) (mumps virus (strain Jeryl-Lynn)) (UniProt C0JJA4). Briefly: cryo-EM structure; L–P complex co-expressed in Sf9 and co-purified by the Strep tag of L; 2.0 μM; annealed and unannealed samples combined; 150 mM NaCl, 20 mM Tris-HCl, 6 mM MgCl2, 1 mM TCEP, pH 8.0; two conformations (L_(integral)–P, L_(body)–P); both purified.

B1: mumps virus (strain Jeryl-Lynn) phosphoprotein (P) (natural protein)
chain: MDQFIKQDETGDLIETGMNVANHFLSTPIQGTNSLSKASILPGVAPVLIGNPEQKNIQHPTASHQGSKTKGRGSGVRSIIVSPSEAGNGGTQIPEPLFAQTGQGGIVTTVYQDPTIQPTGSYRSVELAKIGKERMINRFVEKPRTSTPVTEFKRGGPGAAAQGQTIQEEGIDGNGASAGSKERSGSLSGATLYAHLSLPQQDSTPANVGIAPQSAISANEIMDLLRGMDARLQHLEQKVDKVLAQGSMVTQIKNELSTVKTTLATIEGMMATVKIMDPGNPTGVPVDELRRSFSDHVTIVSGPGDVSFSSSEKPTLYLDELARPVSKPRPAKQTKSQPVKDLAGQKVMITKMITDCVANPQMKQAFEQRLAKASTEDALNDIKRDIIRSAI
notes: Phosphoprotein (P) of mumps virus strain Jeryl-Lynn, GenBank AAF70389.1; domains NTD, OD, Linker2, CTD (with XD); Four P molecules (P1-P4) stand in the L–P complex; only POD, Linker2 and part of PCTD are resolved; also called MuV P; P1; not shown: Flag, C-terminal, kept
For B1, the binding result was “binds”.
